Test system: A38Lg cells
Experiment: RNA-seq of control (DMSO) and 6AN treated cells, differentially expressed genes
Type: cell-based, human
Protocol: RNAi experiments were performed with siRNA transfections (Oligofectamine, Life Technologies) using negative control siRNA (Sigma, SIC001) and pre-designed siRNA oligonucleotides against indicated genes in parallel (Sigma, PGD: SASI_Hs02 00334150, CDH2: SASI_Hs01_00153995, TOP2B: SASI_Hs02_00311874). siRNAs against mutant KRAS^G12V (CUACGCCAACAGCUCCAAC) (SEQ ID NO:1) were custom designed. Cells were incubated with siRNAs for 4 days after transfection and harvested. For drug treatments in 2-D, cells were grown to 70-80% confluency and treated for 3 days with 250 uM 6AN or DMSO negative control.
Tests for statistical significance (two-tailed students t-test) were performed on data collected from technical replicate (performed in parallel at the same time) or biological replicate (performed at different times) experiments as indicated in the figure legends using excel software for western blot densitometry, MTT assays, and tumor measurements. Whole genome bisulfite sequencing and RNA-seq were performed with HiSeq instruments (Illumina) as described in Hansen et al. (Increased methylation variation in epigenetic domains across cancer types. Nat Genet 43, 768-75 (2011)). ChIP assays were performed as previously described for fixed cells with sonication. For ChIP-qPCR, equal amounts of paired input/IP DNA were amplified by real-time PCR (Roche LightCycler96) and fold enrichments calculated. Primer sequences are listed in Supplementary Table 11. […] IP sequencing reads were normalized to their corresponding inputs. Sequencing procedures, bioinformatics methods including domain calls, and statistical analyses are described in detail within the supplementary methods section.
RNA-Seq data processing. 100 bp paired-end HiSeq2000 sequencing reads were aligned against human genome (hg19) by OSA (version 2.0.1) with default parameters. After alignment, only uniquely aligned reads were kept for further analysis. Gene annotation information was downloaded from ENSEMBL (ensembl.com, release 66). Reads count for each gene of all samples were estimated using HTSeq (huber.embl.de/users/anders/HTSeq/doc/overview.html) and then were used to identify differentially expressed (DE) genes using DESeq package. Genes with FDR<0.01 and fold-change>1.5 were considered DE genes.

## NC(=O)c1ccc(N)nc1 [6AN, 6-aminonicotinamide]
  share of recurrently over-expressed genes across distant metastatic subclones down-regulated by 6AN: 29%
A38Lg
  share of 6AN down-regulated genes from A38Lg that were over-expressed in this subclone vs. peritoneal subclone: 52%
  share of 6AN up-regulated genes that matched DE genes that were repressed: 42%
A38Lg, gene counts
  6AN down-regulated genes from A38Lg that were over-expressed in this subclone / all 6AN down-regulated genes: 952/1832
  6AN up-regulated genes that matched repressed DE genes / all 6AN up-regulated genes: 914/2122
Gene counts
  recurrently over-expressed genes down-regulated by 6AN / all recurrently over-expressed genes: 255/891

Source: patent publication US11795510B2, “Identification of epigenomic reprogramming in cancer and uses thereof” (The Johns Hopkins University, priority 2016, dated 2023)
